# From paper PMC5070869, “Secretion-Positive LGI1 Mutations Linked to Lateral Temporal Epilepsy Impair Binding to ADAM22 and ADAM23 Receptors” (PLoS Genetics, 2016)
# No constants are given. Whether binding was seen depends on the method and setting. In cells and extracts the contact can be indirect. Some entries that bind do so weakly or less than the wild type. Tags and fused reporters may be left off the sequences shown.
# T1: HA-ADAM23 (UniProt O75077 287-832)
# T1 construct: ADAM23 (A Disintegrin And Metalloprotease domain 23) receptor, cDNA; Expression of HA-ADAM23 in HEK293T was lower than that of HA-ADAM22; also called HA-tagged ADAM23; HA-fused ADAM23; source: COS7, co-transfected, on cells (immunofluorescence); HEK293T, co-transfected, in lysate (co-IP)
# T1 sequence (looked up): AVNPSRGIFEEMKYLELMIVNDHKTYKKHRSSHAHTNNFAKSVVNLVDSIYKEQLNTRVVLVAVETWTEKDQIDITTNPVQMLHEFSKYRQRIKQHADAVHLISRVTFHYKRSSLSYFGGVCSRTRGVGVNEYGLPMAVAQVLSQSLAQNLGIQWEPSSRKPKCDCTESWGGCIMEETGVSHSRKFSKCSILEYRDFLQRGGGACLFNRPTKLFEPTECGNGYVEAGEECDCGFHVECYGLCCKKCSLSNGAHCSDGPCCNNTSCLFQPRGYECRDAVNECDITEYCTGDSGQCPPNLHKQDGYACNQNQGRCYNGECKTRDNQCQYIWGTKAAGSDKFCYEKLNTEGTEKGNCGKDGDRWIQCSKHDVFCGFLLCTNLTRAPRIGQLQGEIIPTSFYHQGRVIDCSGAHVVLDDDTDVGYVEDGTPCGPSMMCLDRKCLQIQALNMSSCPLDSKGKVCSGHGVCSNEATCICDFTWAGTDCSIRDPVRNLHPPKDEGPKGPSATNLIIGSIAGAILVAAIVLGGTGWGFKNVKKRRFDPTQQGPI
# Biological target: T1, HA-ADAM23
# Assay: co-IP; HEK293T cells co-transfected with LGI1-Flag (wild type or mutant) and HA-ADAM22 or HA-ADAM23; lysed 36 h after transfection (1% Tween 20); anti-HA antibody and Protein G sepharose, 4°C; washes with 250 mM NaCl; blots with anti-HA and anti-LGI1
row,binding,Binder
1,binds,"wild type LGI1-Flag (leucine-rich, glioma-inactivated 1) (ligand, human, UniProt O95970 35-557, looked up, the protein has a signal peptide and is secreted; also called LGI1 wild type; WT; source: COS7, co-transfected with HA-ADAM22 or HA-ADAM23 (immunofluorescence); HEK293T, co-transfected, in lysate (co-IP)) KKPAKPKCPAVCTCTKDNALCENARSIPRTVPPDVISLSFVRSGFTEISEGSFLFTPSLQLLLFTSNSFDVISDDAFIGLPHLEYLFIENNNIKSISRHTFRGLKSLIHLSLANNNLQTLPKDIFKGLDSLTNVDLRGNSFNCDCKLKWLVEWLGHTNATVEDIYCEGPPEYKKRKINSLSSKDFDCIITEFAKSQDLPYQSLSIDTFSYLNDEYVVIAQPFTGKCIFLEWDHVEKTFRNYDNITGTSTVVCKPIVIETQLYVIVAQLFGGSHIYKRDSFANKFIKIQDIEILKIRKPNDIETFKIENNWYFVVADSSKAGFTTIYKWNGNGFYSHQSLHAWYRDTDVEYLEIVRTPQTLRTPHLILSSSSQRPVIYQWNKATQLFTNQTDIPNMEDVYAVKHFSVKGDVYICLTRFIGDSKVMKWGGSSFQDIQRMPSRGSMVFQPLQINNYQYAILGSDYSFTQVYNWDAEKAKFVKFQELNVQAPRSFTHVSINKRNFLFASSFKGNTQIYKHVIVDLSA"
2,no binding,"LGI1-T380A (Flag-tagged) (ligand, UniProt O95970 35-557) KKPAKPKCPAVCTCTKDNALCENARSIPRTVPPDVISLSFVRSGFTEISEGSFLFTPSLQLLLFTSNSFDVISDDAFIGLPHLEYLFIENNNIKSISRHTFRGLKSLIHLSLANNNLQTLPKDIFKGLDSLTNVDLRGNSFNCDCKLKWLVEWLGHTNATVEDIYCEGPPEYKKRKINSLSSKDFDCIITEFAKSQDLPYQSLSIDTFSYLNDEYVVIAQPFTGKCIFLEWDHVEKTFRNYDNITGTSTVVCKPIVIETQLYVIVAQLFGGSHIYKRDSFANKFIKIQDIEILKIRKPNDIETFKIENNWYFVVADSSKAGFTTIYKWNGNGFYSHQSLHAWYRDADVEYLEIVRTPQTLRTPHLILSSSSQRPVIYQWNKATQLFTNQTDIPNMEDVYAVKHFSVKGDVYICLTRFIGDSKVMKWGGSSFQDIQRMPSRGSMVFQPLQINNYQYAILGSDYSFTQVYNWDAEKAKFVKFQELNVQAPRSFTHVSINKRNFLFASSFKGNTQIYKHVIVDLSA"
3,binds weakly,"LGI1-R474Q (Flag-tagged) (ligand, human, UniProt O95970 35-557, looked up, LGI1 with the ADLTE-causing substitution R474Q (c.1421G>A); secreted protein; also called c.1421G>A; source: COS7, co-transfected with HA-ADAM22 or HA-ADAM23 (immunofluorescence); HEK293T, co-transfected, in lysate (co-IP)) KKPAKPKCPAVCTCTKDNALCENARSIPRTVPPDVISLSFVRSGFTEISEGSFLFTPSLQLLLFTSNSFDVISDDAFIGLPHLEYLFIENNNIKSISRHTFRGLKSLIHLSLANNNLQTLPKDIFKGLDSLTNVDLRGNSFNCDCKLKWLVEWLGHTNATVEDIYCEGPPEYKKRKINSLSSKDFDCIITEFAKSQDLPYQSLSIDTFSYLNDEYVVIAQPFTGKCIFLEWDHVEKTFRNYDNITGTSTVVCKPIVIETQLYVIVAQLFGGSHIYKRDSFANKFIKIQDIEILKIRKPNDIETFKIENNWYFVVADSSKAGFTTIYKWNGNGFYSHQSLHAWYRDTDVEYLEIVRTPQTLRTPHLILSSSSQRPVIYQWNKATQLFTNQTDIPNMEDVYAVKHFSVKGDVYICLTRFIGDSKVMKWGGSSFQDIQRMPSQGSMVFQPLQINNYQYAILGSDYSFTQVYNWDAEKAKFVKFQELNVQAPRSFTHVSINKRNFLFASSFKGNTQIYKHVIVDLSA"
4,binds weakly,"LGI1-R407C (Flag-tagged) (ligand, human, UniProt O95970 35-557, looked up, LGI1 with the ADLTE-causing substitution R407C (c.1219C>T); secreted protein; also called c.1219C>T; source: COS7, co-transfected with HA-ADAM22 or HA-ADAM23 (immunofluorescence); HEK293T, co-transfected, in lysate (co-IP)) KKPAKPKCPAVCTCTKDNALCENARSIPRTVPPDVISLSFVRSGFTEISEGSFLFTPSLQLLLFTSNSFDVISDDAFIGLPHLEYLFIENNNIKSISRHTFRGLKSLIHLSLANNNLQTLPKDIFKGLDSLTNVDLRGNSFNCDCKLKWLVEWLGHTNATVEDIYCEGPPEYKKRKINSLSSKDFDCIITEFAKSQDLPYQSLSIDTFSYLNDEYVVIAQPFTGKCIFLEWDHVEKTFRNYDNITGTSTVVCKPIVIETQLYVIVAQLFGGSHIYKRDSFANKFIKIQDIEILKIRKPNDIETFKIENNWYFVVADSSKAGFTTIYKWNGNGFYSHQSLHAWYRDTDVEYLEIVRTPQTLRTPHLILSSSSQCPVIYQWNKATQLFTNQTDIPNMEDVYAVKHFSVKGDVYICLTRFIGDSKVMKWGGSSFQDIQRMPSRGSMVFQPLQINNYQYAILGSDYSFTQVYNWDAEKAKFVKFQELNVQAPRSFTHVSINKRNFLFASSFKGNTQIYKHVIVDLSA"
